According to PMC7778541:
No constants are given. Whether binding was seen depends on the method and setting. Binding seen in cells or lysates may run through a third protein. Here binding means that the protein was enriched with, or labelled near, the bait; the list need not be complete.

T1: Deltex3 (human (endogenous in PTC cells)) (UniProt Q8N9I9)
T1 sequence: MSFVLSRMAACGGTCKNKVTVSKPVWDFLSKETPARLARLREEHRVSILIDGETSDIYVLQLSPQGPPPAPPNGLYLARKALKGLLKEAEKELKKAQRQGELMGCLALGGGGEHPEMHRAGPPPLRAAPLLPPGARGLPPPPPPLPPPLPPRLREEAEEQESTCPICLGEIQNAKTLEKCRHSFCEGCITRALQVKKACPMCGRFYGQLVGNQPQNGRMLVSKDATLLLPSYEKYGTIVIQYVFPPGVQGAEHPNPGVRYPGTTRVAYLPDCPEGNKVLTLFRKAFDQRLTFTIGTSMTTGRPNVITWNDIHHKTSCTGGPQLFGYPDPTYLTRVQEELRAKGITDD


Biological target: T1, Deltex3 (human (endogenous in PTC cells))
Assay: affinity purification with mass spectrometry; IP-MS: cell lysate in IP lysis buffer, anti-DTX3 antibody or normal IgG overnight at 4 °C, Protein A/G PLUS-Agarose beads, 4 washes, eluted in SDT buffer for MS

| Binder | binding |
| --- | --- |
| Inter-alpha-trypsin inhibitor heavy chain H2 (protein, UniProt P19823 55-702) SLPGESEEMMEEVDQVTLYSYKVQSTITSRMATTMIQSKVVNNSPQPQNVVFDVQIPKGAFISNFSMTVDGKTFRSSIKEKTVGRALYAQARAKGKTAGLVRSSALDMENFRTEVNVLPGAKVQFELHYQEVKWRKLGSYEHRIYLQPGRLAKHLEVDVWVIEPQGLRFLHVPDTFEGHFDGVPVISKGQQKAHVSFKPTVAQQRICPNCRETAVDGELVVLYDVKREEKAGELEVFNGYFVHFFAPDNLDPIPKNILFVIDVSGSMWGVKMKQTVEAMKTILDDLRAEDHFSVIDFNQNIRTWRNDLISATKTQVADAKRYIEKIQPSGGTNINEALLRAIFILNEANNLGLLDPNSVSLIILVSDGDPTVGELKLSKIQKNVKENIQDNISLFSLGMGFDVDYDFLKRLSNENHGIAQRIYGNQDTSSQLKKFYNQVSTPLLRNVQFNYPHTSVTDVTQNNFHNYFGGSEIVVAGKFDPAKLDQIESVITATSANTQLVLETLAQMDDLQDFLSKDKHADPDFTRKLWAYLTINQLLAERSLAPTAAAKRRITRSILQMSLDHHIVTPLTSLVIENEAGDERMLADAPPQDPSCCSGALYYGSKVVPDSTPSWANPSPTPVISMLAQGSQVLESTPPPHVMRVEND | binds |
| PDZ domain-containing protein 8 (protein, UniProt Q8NEN9 1-1154) MGLLLMILASAVLGSFLTLLAQFFLLYRRQPEPPADEAARAGEGFRYIKPVPGLLLREYLYGGGRDEEPSGAAPEGGATPTAAPETPAPPTRETCYFLNATILFLFRELRDTALTRRWVTKKIKVEFEELLQTKTAGRLLEGLSLRDVFLGETVPFIKTIRLVRPVVPSATGEPDGPEGEALPAACPEELAFEAEVEYNGGFHLAIDVDLVFGKSAYLFVKLSRVVGRLRLVFTRVPFTHWFFSFVEDPLIDFEVRSQFEGRPMPQLTSIIVNQLKKIIKRKHTLPNYKIRFKPFFPYQTLQGFEEDEEHIHIQQWALTEGRLKVTLLECSRLLIFGSYDREANVHCTLELSSSVWEEKQRSSIKTVELIKGNLQSVGLTLRLVQSTDGYAGHVIIETVAPNSPAAIADLQRGDRLIAIGGVKITSTLQVLKLIKQAGDRVLVYYERPVGQSNQGAVLQDNFGQLEENFLSSSCQSGYEEEAAGLTVDTESRELDSEFEDLASDVRAQNEFKDEAQSLSHSPKRVPTTLSIKPLGAISPVLNRKLAVGSHPLPPKIQSKDGNKPPPLKTSEITDPAQVSKPTQGSAFKPPVPPRPQAKVPLPSADAPNQAEPDVLVEKPEKVVPPPLVDKSAEKQAKNVDAIDDAAAPKQFLAKQEVAKDVTSETSCPTKDSSDDRQTWESSEILYRNKLGKWTRTRASCLFDIEACHRYLNIALWCRDPFKLGGLICLGHVSLKLEDVALGCLATSNTEYLSKLRLEAPSPKAIVTRTALRNLSMQKGFNDKFCYGDITIHFKYLKEGESDHHVVTNVEKEKEPHLVEEVSVLPKEEQFVGQMGLTENKHSFQDTQFQNPTWCDYCKKKVWTKAASQCMFCAYVCHKKCQEKCLAETSVCGATDRRIDRTLKNLRLEGQETLLGLPPRVDAEASKSVNKTTGLTRHIINTSSRLLNLRQVSKTRLSEPGTDLVEPSPKHTPNTSDNEGSDTEVCGPNSPSKRGNSTGIKLVRKEGGLDDSVFIAVKEIGRDLYRGLPTEERIQKLEFMLDKLQNEIDQELEHNNSLVREEKETTDTRKKSLLSAALAKSGERLQALTLLMIHYRAGIEDIETLESLSLDQHSKKISKYTDDTEEDLDNEISQLIDSQPFSSISDDLFGPSESV | binds |
